The list does not hold the whole screen: it gathers tests that were run many times, whatever their T/C, doses with no T/C, and many T/C values between a quarter and a half above the control. Further doses and runs are listed elsewhere. T/C is the treated group as % of the vehicle group. Some doses have a count of surviving animals in place of a T/C: the source files T/C as zero there, which appears to mark a toxic dose or a test without result, not a measured value. Some doses without a T/C left all or most animals alive at the check, yet need not have been tolerated: the source hardly ever lists a survival T/C far under the control, and the zero likely stands for such cases as well. Counts of survivors are from the toxicity check (mostly the fifth day) where no day follows; animals may have died later. Schedule codes are those of the source, taken here to give the interval after Q, in days (D) or hours (H), and the number of doses after X. Some molecules as drawn cover several salts, stereoisomers or complexes of the source; a dose is that of the sample tested. Some entries were tested several times; the values are given in rising order. Additions like (4×) stand for listed records that agree. Where survival is the endpoint, this PubChem deposit counts one and a half times the control or more as active, and values a quarter to a half above the control carry no call in these data; other NCI protocols may use other cut-offs. Some T/C values are followed by the survivors on the day toxicity was checked, most often the fifth; without a count, all were alive then.
System: P388 leukemia ip, CD2F1 mice, survival T/C
Assay: NCI In Vivo Anticancer Drug Screen. Data for tumor model P388 Leukemia (intraperitoneal) in CD2F1 (CDF1) mice
Conditions: T/C endpoint: median survival time, higher T/C = longer survival
[1] = dose: 120.0 mg/kg/injection, schedule: Q01DX005 (iv), vehicle: water
[2] = dose: 200.0 mg/kg/injection, schedule: Q01DX009 (ip), vehicle: distilled water + Tween-80
[3] = dose: 400.0 mg/kg/injection, schedule: Q01DX009 (ip), vehicle: saline

ClCC[N+]12CC[N+](CCCl)(CC1)C2
T/C (dose: 100.0 mg/kg/injection, schedule: Q04DX003 (ip), vehicle: saline with Tween-80): 130 and 136 % of control
T/C (dose: 120.0 mg/kg/injection, schedule: Q01DX001 (ip), vehicle: water): 130 % of control
T/C (dose: 120.0 mg/kg/injection, schedule: Q01DX001 (iv), vehicle: water): 130 % of control
T/C (dose: 120.0 mg/kg/injection, schedule: Q01DX005 (iv), vehicle: clinical formulation): 130 and 135 % of control
T/C [1]: 132, 138, 145 % of control
survivor count [1]: 0 of 10 and 4 of 10
T/C (dose: 120.0 mg/kg/injection, schedule: Q01DX005 (oral), vehicle: water): 133 % of control
T/C (dose: 120.0 mg/kg/injection, schedule: Q01DX009 (ip), vehicle: clinical formulation): 129 % of control
survivor count (dose: 120.0 mg/kg/injection, schedule: Q01DX009 (ip), vehicle: water): 0 of 10
T/C (dose: 120.0 mg/kg/injection, schedule: Q01DX009 (oral), vehicle: water): 134 % of control
T/C (dose: 160.0 mg/kg/injection, schedule: Q01DX005 (ip), vehicle: water): 144 % of control [6 of 8 alive]
survivor count (dose: 160.0 mg/kg/injection, schedule: Q01DX009 (ip), vehicle: clinical formulation): 6 of 10
T/C (dose: 180.0 mg/kg/injection, schedule: Q01DX005 (iv), vehicle: clinical formulation): 140 % of control [9 of 10 alive]
T/C (dose: 180.0 mg/kg/injection, schedule: Q01DX005 (iv), vehicle: water): 138 [8 of 10 alive] and 146 % of control
survivor count (dose: 200.0 mg/kg/injection, schedule: Q01DX005 (ip), vehicle: water): 1 of 8
T/C [2]: 104 % of control
survivor count [2]: 1 of 6 and 6 of 6
survivor count (dose: 200.0 mg/kg/injection, schedule: Q01DX009 (ip), vehicle: saline with Tween-80): 6 of 6
survivor count (dose: 200.0 mg/kg/injection, schedule: Q01DX009 (ip), vehicle: saline): 0 of 6 and 6 of 6
T/C (dose: 200.0 mg/kg/injection, schedule: Q01DX009 (ip), vehicle: water, evaluated on day 30): 87 (2×), 94, 145, 225 % of control [5 of 6 alive]
T/C (dose: 200.0 mg/kg/injection, schedule: Q01DX009 (ip), vehicle: water, evaluated on day 40): 236 % of control
survivor count (dose: 200.0 mg/kg/injection, schedule: Q01DX009 (ip), vehicle: water): 0 of 6, 1 of 6 (2×), 3 of 6, 6 of 6 (2×)
T/C (dose: 200.0 mg/kg/injection, schedule: Q01DX009 (oral), vehicle: saline with Tween-80): 138 % of control
T/C (dose: 200.0 mg/kg/injection, schedule: Q04DX003 (ip), vehicle: saline with Tween-80): 138 % of control
T/C (dose: 240.0 mg/kg/injection, schedule: Q01DX001 (ip), vehicle: water): 143 % of control [9 of 10 alive]
T/C (dose: 240.0 mg/kg/injection, schedule: Q01DX001 (iv), vehicle: water): 126 % of control [7 of 10 alive]
survivor count (dose: 240.0 mg/kg/injection, schedule: Q01DX005 (ip), vehicle: water): 0 of 10
survivor count (dose: 240.0 mg/kg/injection, schedule: Q01DX005 (iv), vehicle: water): 0 of 10
survivor count (dose: 240.0 mg/kg/injection, schedule: Q01DX009 (ip), vehicle: clinical formulation): 0 of 10 and 4 of 10
survivor count (dose: 240.0 mg/kg/injection, schedule: Q01DX009 (ip), vehicle: water): 0 of 10, 1 of 10 (2×), 2 of 10
T/C (dose: 266.0 mg/kg/injection, schedule: Q01DX001 (ip), vehicle: saline with Tween-80): 145 % of control
survivor count (dose: 400.0 mg/kg/injection, schedule: Q01DX005 (ip), vehicle: water): 0 of 8
survivor count (dose: 400.0 mg/kg/injection, schedule: Q01DX009 (ip), vehicle: distilled water + Tween-80): 0 of 6
survivor count (dose: 400.0 mg/kg/injection, schedule: Q01DX009 (ip), vehicle: saline with Tween-80): 4 of 6
T/C [3]: 134 % of control
survivor count [3]: 0 of 6 and 3 of 6
survivor count (dose: 400.0 mg/kg/injection, schedule: Q01DX009 (ip), vehicle: water): 0 of 6
survivor count (dose: 400.0 mg/kg/injection, schedule: Q01DX009 (oral), vehicle: saline with Tween-80): 6 of 6
T/C (dose: 400.0 mg/kg/injection, schedule: Q04DX003 (ip), vehicle: distilled water + Tween-80): 146 % of control
T/C (dose: 400.0 mg/kg/injection, schedule: Q04DX003 (ip), vehicle: saline with Tween-80): 153, 156, 186, 268 % of control
survivor count (dose: 480.0 mg/kg/injection, schedule: Q01DX001 (ip), vehicle: water): 3 of 10
survivor count (dose: 480.0 mg/kg/injection, schedule: Q01DX001 (iv), vehicle: water): 2 of 10
T/C (dose: 480.0 mg/kg/injection, schedule: Q01DX001 (oral), vehicle: water): 129 % of control
survivor count (dose: 480.0 mg/kg/injection, schedule: Q01DX005 (ip), vehicle: water): 0 of 10
survivor count (dose: 480.0 mg/kg/injection, schedule: Q01DX005 (iv), vehicle: water): 0 of 10
survivor count (dose: 480.0 mg/kg/injection, schedule: Q01DX005 (oral), vehicle: water): 6 of 10
survivor count (dose: 480.0 mg/kg/injection, schedule: Q01DX009 (ip), vehicle: water): 0 of 10
survivor count (dose: 480.0 mg/kg/injection, schedule: Q01DX009 (oral), vehicle: water): 9 of 10
survivor count (dose: 600.0 mg/kg/injection, schedule: Q01DX001 (ip), vehicle: saline with Tween-80): 6 of 6
survivor count (dose: 600.0 mg/kg/injection, schedule: Q04DX003 (ip), vehicle: distilled water + Tween-80): 5 of 6
survivor count (dose: 600.0 mg/kg/injection, schedule: Q04DX003 (ip), vehicle: saline with Tween-80): 6 of 6
survivor count (dose: 800.0 mg/kg/injection, schedule: Q01DX009 (oral), vehicle: saline with Tween-80): 5 of 6
survivor count (dose: 960.0 mg/kg/injection, schedule: Q01DX001 (oral), vehicle: water): 1 of 10
